# Among all 320,000 compounds or so, about 22,000 (6.9%) were called active. Inconclusive results, whose numbers are uncertain, are shown with a selection of clear calls. The call rests on the fitted dose curve; in most records, active means well fitted inhibition curve with a large enough effect; inconclusive means small, poorly fitted or top-dose-only effect, or another doubt; inactive means no such curve, though single readings can be large or run the other way. Potencies of inconclusive entries are doubtful fits and often do not repeat.
# Test: Primary qHTS for delayed death inhibitors of the malarial parasite plastid, 96 hour incubation
# Conditions: P. falciparum luciferase reporter growth; series mostly up to 28.7 µM
# Method in brief: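 Plates of compound plus infected erythrocytes (2% hematocrit, 0.05% parasitemia final) incubate 96 hours, 37 C, 5% CO2. Detection reagent added; reduced luminescence from the parasites' luciferase reporter flags inhibition.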
# Potency means the concentration at half of the fitted maximal effect.
row,SMILES,Potency
1,CC(C)CCNC(=O)C12CN(Cc3ccccc3)CC1C(c1cccc([N+](=O)[O-])c1)=NO2 (centres undefined),"inconclusive: 11.7 µM [inhibitor, partial curve, poor fit]"
2,COc1ccc(NC(=S)Nc2ccc(S(N)(=O)=O)cc2)c(OC)c1,"inconclusive: 1.85 µM [inhibitor, full curve, poor fit]"
3,O=C(NCCCCc1ccccc1)c1ccccc1F,inactive
4,COc1cccc(NC(=O)C(Sc2nc3ccccc3c(=O)n2CC(C)C)c2ccccc2)c1 (centres undefined),active: 2.62 µM
5,Cc1ccc2oc(-c3ccc(NC(=O)c4ccncc4)cc3O)nc2c1,inactive
6,CCOC(=O)c1nn(-c2ccc(F)cc2)c(-c2ccccc2)c1C(=O)c1ccccc1,"inconclusive: 9.28 µM [inhibitor, single point]"
7,Cc1ccccc1NC(=O)NCCCN1CCN(c2ccccc2)CC1,active: 2.33 µM
8,Cc1c(NC(=S)N/N=C/c2ccc(Br)cc2)c(=O)n(-c2ccccc2)n1C,inactive
9,CCCC(C(=O)NCc1ccco1)N(Cc1ccco1)C(=O)CNS(=O)(=O)c1ccccc1 (centres undefined),"inconclusive: 13.1 µM [inhibitor, single point]"
10,C/C(CC(C)C)=N\NC(=O)Nc1ccccc1,"inconclusive: 18.5 µM [inhibitor, single point]"
11,COc1ccccc1NC(=S)N(CCc1nc2cc(C)c(C)cc2[nH]1)Cc1cccnc1,"inconclusive: 16.5 µM [inhibitor, single point]"
12,CC(C)Nc1nnc(Sc2ccc(Cl)cc2[N+](=O)[O-])s1,"inconclusive: 18.5 µM [inhibitor, single point]"
13,CC(C)(C)OC(=O)N1CCC(NC(=O)c2nc[nH]c2C(=O)N2CCN(C(=O)OC(C)(C)C)CC2)CC1,"inconclusive: 11.7 µM [inhibitor, partial curve]"
14,FC(F)(F)c1cccc(-c2ccn3ncnc3n2)c1,inactive
15,CCNc1ccc(S(=O)(=O)N(C)C)cc1NCC(=O)Nc1ccc(F)c(Cl)c1,"inconclusive: 18.5 µM [inhibitor, single point]"
16,CC(O)c1cccc(NC(=O)Nc2cccc(NC(=O)Nc3cccc(C(C)O)c3)c2)c1 (centres undefined),"inconclusive: 1.47 µM [inhibitor, partial curve, poor fit]"
17,O=C(c1cccc(C(=O)N2CCN(c3ncccn3)CC2)c1)N1CCN(c2ncccn2)CC1,"inconclusive: 13.1 µM [inhibitor, single point]"
18,Cc1onc(-c2c(Cl)cccc2Cl)c1C(=O)NCc1ccccn1,active: 2.08 µM
19,CCOC(=O)N1CCN(C(=O)c2ccc3nc(-c4ccccc4)c(-c4ccccc4)nc3c2)CC1,inactive
20,COc1ccc(NC(=O)c2c(OC)cccc2OC)c(OC)c1,"inconclusive: 11.7 µM [inhibitor, partial curve, poor fit]"
21,COc1ccc(C(=O)Nc2ccc(Cl)cn2)cc1S(=O)(=O)N1CCCC1,"inconclusive: 6.57 µM [inhibitor, partial curve, poor fit]"
22,Cc1ccc(S(=O)(=O)c2cc3cc(Br)ccc3oc2=O)cc1,active: 1.65 µM
23,O=C(N/N=C/c1sc(N2CCOCC2)nc1-c1ccccc1)c1ccccc1O,active: 1.85 µM

# A draw from above in order of number of heavy atoms, ascending.
row,SMILES,Potency
10,C/C(CC(C)C)=N\NC(=O)Nc1ccccc1,"inconclusive: 18.5 µM [inhibitor, single point]"
17,O=C(c1cccc(C(=O)N2CCN(c3ncccn3)CC2)c1)N1CCN(c2ncccn2)CC1,"inconclusive: 13.1 µM [inhibitor, single point]"
19,CCOC(=O)N1CCN(C(=O)c2ccc3nc(-c4ccccc4)c(-c4ccccc4)nc3c2)CC1,inactive

# The list continues:

row,SMILES,Potency
1,O=C(Nc1nc(-c2cccs2)cs1)c1ccc(Cl)s1,"inconclusive: 18.5 µM [inhibitor, single point]"
2,COC(=O)N=Nc1c(O)[nH]c2ccc(Br)cc12,inactive
3,CCC(=O)N1c2ccccc2NC2=C(C(=O)CCC2)C1c1ccco1 (centres undefined),"inconclusive: 9.28 µM [inhibitor, single point]"
4,O=C(NC(=S)Nc1cccc(Cl)c1N1CCCCC1)c1ccc2c(c1)OCCO2,"inconclusive: 10.4 µM [inhibitor, single point]"
5,CC1=C([N+](=O)[O-])C(c2ccccc2Cl)NC(=O)N1 (centres undefined),"inconclusive: 11.7 µM [inhibitor, single point]"
6,CCOc1ccccc1NC(=O)C1CCC(CNc2c(N3CCCCC3)c(=O)c2=O)CC1 (centres undefined),"inconclusive: 6.57 µM [inhibitor, partial curve]"
7,Cc1cc(C)c(NC(=O)CSc2ccc(-c3cccnc3)nn2)c(C)c1,"inconclusive: 18.5 µM [inhibitor, single point]"
8,Cc1nn2c(N3CCN(C)CC3)c3c(nc2c1-c1ccccc1)CCCC3,active: 9.28 µM
9,CCCCCn1c(N)c(C(=O)NCCN2CCOCC2)c2nc3ccccc3nc21,"inconclusive: 18.5 µM [inhibitor, partial curve, poor fit]"
10,O=C(Nc1nc(-c2ccc(Cl)s2)cs1)c1ccncc1,active: 10.4 µM
11,Cc1c(Cl)cccc1NC(=O)c1ccco1,"inconclusive: 8.28 µM [inhibitor, single point]"
12,Cc1nc(CS(=O)(=O)c2ccccc2)cc(Sc2ccc(Cl)cc2Cl)n1,"inconclusive: 4.65 µM [inhibitor, partial curve]"
13,CC1CCc2sc(C(=O)N(C)CC(=O)Nc3ccc(N4CCOCC4)cc3)cc2C1 (centres undefined),"inconclusive: 16.5 µM [inhibitor, single point]"
14,COCCNC(=S)N(CCc1c(C)[nH]c2ccc(F)cc12)Cc1ccco1,inactive
15,CCOC(=O)NC(=O)CSc1nnnn1-c1ccccc1,"inconclusive: 18.5 µM [inhibitor, single point]"
16,CCC(C)C1(CC)C(=O)NC(=O)N=C1N (centres undefined),inactive
17,CCS(=O)(=O)N1CCCC(C(=O)N2CCc3ccccc3C2)C1 (centres undefined),"inconclusive: 4.15 µM [inhibitor, single point]"
18,C=CCn1c(=NC(=O)c2ccc(S(=O)(=O)N3CCc4ccccc4C3)cc2)sc2cc(S(N)(=O)=O)ccc21,"inconclusive: 9.28 µM [inhibitor, partial curve, poor fit]"
19,O=C(CN1CCCCC1)Nc1c2c(nc3ccccc13)N(c1ccccc1)CC2,"inconclusive: 0.0738 µM [inhibitor, full curve, poor fit]"
20,Cc1ccc(SC[C@H](c2ccccc2)N2CCN(C)CCC2=O)cc1,inactive
21,CC1CCCC(NC(=O)NC(=O)CCl)C1C (centres undefined),active: 10.4 µM
22,CC(C)NCC(O)COCCOc1ccc(Br)cc1 (centres undefined),inactive
23,O=C(O)CCNC(=O)c1ccc(NC(=O)C(c2ccccc2)c2ccccc2)cc1,"inconclusive: 11.7 µM [inhibitor, single point]"

row,SMILES,Potency
1,c1ccc(C2C3=C(Nc4ncnn42)c2ccccc2CCC3)cc1 (centres undefined),active: 5.22 µM
2,CCCC1=Nc2cc(C(=O)N3CCCC3)ccc2Sc2ccc(C)cc21,inactive
3,Cn1c(CSCc2ccccc2)nnc1SCC(=O)Nc1nccs1,active: 5.86 µM
4,Cc1ccccc1N1C(=O)CC1(C#N)c1ccc(OCc2ccccc2)cc1 (centres undefined),"inconclusive: 11.7 µM [inhibitor, single point]"
5,O=[N+]([O-])c1ccc(S(=O)(=O)NCC(c2cccnc2)N2CCc3ccccc3C2)cc1 (centres undefined),"inconclusive: 10.4 µM [inhibitor, single point]"
6,COC(=O)c1ccc(COc2ccccc2/C=C/C(=O)c2ccc(OCC(=O)O)cc2)cc1,active: 1.47 µM
7,CC(=O)C1=C(O)C(=O)N(c2ccc(C)cc2)C1c1ccc([N+](=O)[O-])cc1 (centres undefined),"inconclusive: 13.1 µM [inhibitor, partial curve, poor fit]"
8,O=C(Nc1cc(S(=O)(=O)N2CCCCC2)ccc1O)c1ccccc1NS(=O)(=O)c1ccc(F)cc1,"inconclusive: 11.7 µM [inhibitor, single point]"
9,O=C(NC1CCCC1)C1CCN(C(=O)c2cc(Cl)ccc2Cl)CC1,inactive
10,OCCC1CN(Cc2cccn2-c2nccs2)CCN1Cc1ccccc1 (centres undefined),inactive
11,N#CC/C(N)=N/Nc1nc2ccccc2nc1Cc1ccccc1,"inconclusive: 0.0928 µM [inhibitor, full curve, poor fit]"
12,O=C(O)CCCNS(=O)(=O)/C=C/c1ccccc1,"inconclusive: 1.65 µM [inhibitor, single point]"
13,CCc1ccccc1Nc1nc(N)nc(COC(=O)c2c(C)noc2C)n1,"inconclusive: 8.28 µM [inhibitor, partial curve, poor fit]"
14,CCN1CCN(c2ccc(Cl)cc2NC(=O)c2ccco2)CC1,"inconclusive: 13.1 µM [inhibitor, partial curve, poor fit]"
15,COCc1cc(CN2CCCC2)c(O)c2ncccc12,"inconclusive: 3.29 µM [inhibitor, partial curve, poor fit]"
16,Cc1onc(-c2ccccc2)c1C(=O)N1CCC(CO)(Cc2ccccc2)CC1,inactive
17,COc1ccc(CN2C(=O)C(Cc3ccccc3)Nc3ncnc(N4CCOCC4)c32)cc1 (centres undefined),"inconclusive: 11.7 µM [inhibitor, single point]"
18,CCO[C@H]1OC(C(=O)NC2CC2)=C[C@@H](c2c[nH]c3ccccc23)[C@@H]1CCCO,inactive
19,O=C(COC(=O)/C=C/c1ccccc1[N+](=O)[O-])Nc1ccc(OC(F)F)cc1,inactive
20,N#Cc1cnn2c1nc(N1CCCCC1)c1ccccc12,"inconclusive: 1.17 µM [inhibitor, full curve, poor fit]"
21,CC(C)Oc1ccc(CC(=O)NNC(=S)Nc2ccc(Br)cc2)cc1,"inconclusive: 18.5 µM [inhibitor, single point]"
22,O=c1c2ccccc2[nH]c2ccc(O)cc12,"inconclusive: 18.5 µM [inhibitor, single point]"
23,CN(C)C(CNC(=O)C1CCN(S(=O)(=O)c2cccc(Cl)c2Cl)CC1)c1ccccc1 (centres undefined),"inconclusive: 14.7 µM [inhibitor, partial curve, poor fit]"

# Source: PubChem BioAssay AID504834 (National Center for Advancing Translational Sciences (NCATS), 2011)
